Source: PubChem BioAssay AID1508600 (Functional Genomics Laboratory (NCATS/FGL), 2020)
About 3,700 (7%) of roughly 53,000 sequences were called active.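 How the source made its calls: active means gene knockdowns whose robust z-score for IL-1 alpha signal is at least 2 or at most -2, so actives lie on both sides; inactive means the rest.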 The list shows a part of the results.

Experiment: Components of the Cytosolic LPS Sensing Pathway: Gene Identification via Genome-wide siRNA Screen;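 further: robust z of the log signal after scaling to non-targeting control siRNA wells of the plate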
Settings: RAW264.7 macrophages, IL-1a HTRF, actives lie on both sides, screened at 100 nM (by protocol), cells primed 5 h with Pam3CSK4 first
Method in brief: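 IL-1a HTRF of supernatants after 24 hour LipidA transfection of Pam3CSK4-primed (5 hours) RAW264.7 cells, 48h post-siRNA transfection (100 nM). Scores: percent of plate negative-control median, then log-based robust z-score.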

Sequence	z-score
GCCUGAUGAAGACAUGCAUTT against Fam178b	inactive: -1.4
GGAACCUAGUUUGUGGAUUTT against Phf24	inactive: -0.218
GAAACUUCCUAAAUAACUUTT against Vmn1r214	inactive: -0.458
GGACAAAGGGAUUGCCAUUTT against Il1f9	inactive: 0.62
GGUUCUUUGGCUCUGUAUGTT against Atp5c1	inactive: -0.64
GGGUAUUAAGAGCCAACUGTT against Mcts2	inactive: 0.297
CCGCUUGGUUACCAGUGACTT against Nudc	inactive: 0.301
GCUUACCUUACAUUGUAAGTT against Eda2r	inactive: 0.464
GGACUUGUGGCUCAUUGAGTT against Atg2a	inactive: -1.25
GCUGCACGUGAUCAUGGAUTT against Accs	inactive: 0.852
GGUAGUAGUGAAACCCAGGTT against Irs4	inactive: -1.28
GCACUAGACGAGAUGACAATT against Eif4g2	inactive: -1.1
GGAAUUCUGCACCUCCCAATT against A730020M07Rik	inactive: -0.266
UGGGUAUUACCAUAAAUGUTT against Tas2r114	inactive: 0.53
GGAUUUCCUGGAAAAUUCCTT against St8sia1	inactive: -0.000682
GGCAUGGUGGUCUUUCCUUTT against Sephs1	inactive: -1.85
GGAAUAUACCCUGAAACAUTT against Fam71d	inactive: 0.0244
CCACCGGGAGAACAAUCAATT against Ago2	inactive: -0.496
CGGACAAGAUAGUAUUCUUTT against Atp2b1	inactive: -1.06
GCCCAACUUUCAACAAGACTT against Ptgds	inactive: -0.746
GGGCGAAAACCAUUCAAAUTT against Zfp112	active: 3.38
CCGUAUUAGAAAGUAGAUATT against Arpp19	active: 2.01
GGUUCGUAAAAUUAUUAGGTT against Vcl	inactive: 1.09
GCUAAUCUGAGAAACAGGCTT against Gpatch11	inactive: -0.544
GGGUAUGAAUAUGAGUGCCTT against Golga7b	inactive: -0.465
GGAAGAAGAAGUCUUACACTT against Rps27a	inactive: 0.801
CCCAUUUGGAAUUAUUCCUTT against Arf4	inactive: -0.598
GGGAAGCUGAUUAUACAUUTT against Serpinf1	active: 3.22
GCAGUAAUGUCCAGGGACATT against Akt2	inactive: 0.133

Part of the list above, with bars between the fields:
Sequence | z-score
GGUUCUUUGGCUCUGUAUGTT against Atp5c1 | inactive: -0.64
GGUAGUAGUGAAACCCAGGTT against Irs4 | inactive: -1.28
